Source: PubChem BioAssay AID686937 (Drosophila RNAi Screening Center, 2013)
In all, the deposit lists about 23,000 reagents; below is a random part of those with a known target gene and a result. 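Reduced-secretion tags in replicate 1 do not always agree with the z-scores; no criterion for assigning the tags was given.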 A plus sign joins genes that one reagent is predicted to hit. Further read-outs or replicates are left out here. Not given: the amount of reagent.

Test: 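Genes in the fly needed for secretion of protein constitutively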 (primary screen)
System: Drosophila S2 cells expressing secreted horseradish peroxidase
Knock-down reagent: long dsRNA against Drosophila genes
Timing: about 5.5 days (5 days dsRNA, then 12 h reporter induction)
Challenge: reporter expression induced after 5 days of dsRNA, read 12 h later; inducer not stated
Detection: 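After 5 days of dsRNA and 12 h of reporter induction, medium peroxidase read by chemiluminescence and scored as per-plate z-score; higher values mean more reporter released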
Direction: z-score: higher = more reporter secreted into medium

Against CG8915 [DRSC20119], the entry reads z-score, replicate 1 = 0.28.
D2hgdh (D-2-hydroxyglutaric acid dehydrogenase) [DRSC18577] gave z-score, replicate 1 = 0.04.
Silencing of CG1090 [DRSC12150] came out at: z-score, replicate 1 = 0.13.
After knock-down of CG1090 [DRSC21604], the record shows z-score, replicate 1 = -0.51.
With knock-down of CG6707 [DRSC10697] the results were z-score, replicate 1 = 0.34.
Against CG43071 [DRSC05753], the entry reads z-score, replicate 1 = 0.38.
Edc3 (Enhancer of decapping 3) [DRSC10620] gave z-score, replicate 1 = 0.28.
CG7130 [DRSC11797] showed z-score, replicate 1 = 0.42.
Cat (Catalase) [DRSC11110] gave z-score, replicate 1 = 0.33.
Knock-down of CG11786 [DRSC14389] came out at: z-score, replicate 1 = 0.27.
Cht12 (Chitinase 12) [DRSC03844] showed z-score, replicate 1 = -0.38.
bsf (bicoid stability factor) [DRSC02035] scored z-score, replicate 1 = 0.41.
After knock-down of Drs (Drosomycin) [DRSC08657], the screen gave z-score, replicate 1 = 0.39.
CG6216 [DRSC10606] showed z-score, replicate 1 = 0.08.
Knock-down of Surf4 (Surfeit 4) [DRSC16875] resulted in: z-score, replicate 1 = -0.11.
Depletion of CG7849 [DRSC04895] resulted in: z-score, replicate 1 = 0.26.
Against Fbxo42 (F-box protein 42) [DRSC04529], the values are z-score, replicate 1 = -0.35.
For CG18190 [DRSC06714], the values are z-score, replicate 1 = 0.31.
slmb (supernumerary limbs) [DRSC17056] showed z-score, replicate 1 = 0.33.
Against CG6138 [DRSC02933] the deposit lists z-score, replicate 1 = 0.63.
After knock-down of CysRS (Cysteinyl-tRNA synthetase) [DRSC05948], the record shows z-score, replicate 1 = -0.04.
CG11566 (retired record) + stg1 [DRSC20473] gave z-score, replicate 1 = -4.55.
Depletion of CG11566 (retired record) + stg1 [DRSC20481] resulted in: z-score, replicate 1 = 0.46.
Against CG11566 (retired record) + stg1 [DRSC20482] the deposit lists z-score, replicate 1 = 0.47.
With knock-down of CG11566 (retired record) + stg1 [DRSC20483] the results were z-score, replicate 1 = 0.39.
Against CG31759 [DRSC01230], the values are z-score, replicate 1 = 0.04.
After knock-down of CG15358 [DRSC00388], the screen gave z-score, replicate 1 = 0.13.
CG32639 [DRSC18972] scored z-score, replicate 1 = 0.49.
With knock-down of Or69a (Odorant receptor 69a) [DRSC11243], the screen gave z-score, replicate 1 = 0.05.
With knock-down of CG33339 [DRSC22917] the results were z-score, replicate 1 = -0.27.
Knock-down of CG4045 [DRSC18518] resulted in: z-score, replicate 1 = 0.11.
Eh (Eclosion hormone) [DRSC16660] scored z-score, replicate 1 = 0.26.
Against kairos [DRSC19972], the values are z-score, replicate 1 = 0.32.
Depletion of Tsp42A (Tetraspanin 42A) [DRSC04862] resulted in: z-score, replicate 1 = 0.37.
RacGAP84C (Rac GTPase activating protein at 84C) [DRSC12630] gave z-score, replicate 1 = 0.09.
After knock-down of Gas8 (Growth arrest specific protein 8) [DRSC22884], the screen gave z-score, replicate 1 = 0.66.
CycH (Cyclin H) [DRSC11861] showed z-score, replicate 1 = -0.2.
CycH (Cyclin H) [DRSC21308] gave z-score, replicate 1 = -0.18.
Silencing of CCT6 (Chaperonin containing TCP1 subunit 6) [DRSC20095] came out at: z-score, replicate 1 = -5.84.
For Coq4 + frc [DRSC10381] the deposit lists z-score, replicate 1 = -1.18.
After knock-down of Coq4 + frc [DRSC10382], the record shows z-score, replicate 1 = 0.34.

Copied from the list.
Result of CG6707 [DRSC10697] in “z-score, replicate 1”: 0.34
CG1090 [DRSC21604], z-score, replicate 1: -0.51
Entry for Eh (Eclosion hormone) [DRSC16660] in “z-score, replicate 1”: 0.26
Value of CG33339 [DRSC22917] in “z-score, replicate 1”: -0.27
